Data on 7 molecules can be found in publication PMC3828145.

By UniProt entry, the sequences of proteins in these tests, tags left out.
UniProt P53552: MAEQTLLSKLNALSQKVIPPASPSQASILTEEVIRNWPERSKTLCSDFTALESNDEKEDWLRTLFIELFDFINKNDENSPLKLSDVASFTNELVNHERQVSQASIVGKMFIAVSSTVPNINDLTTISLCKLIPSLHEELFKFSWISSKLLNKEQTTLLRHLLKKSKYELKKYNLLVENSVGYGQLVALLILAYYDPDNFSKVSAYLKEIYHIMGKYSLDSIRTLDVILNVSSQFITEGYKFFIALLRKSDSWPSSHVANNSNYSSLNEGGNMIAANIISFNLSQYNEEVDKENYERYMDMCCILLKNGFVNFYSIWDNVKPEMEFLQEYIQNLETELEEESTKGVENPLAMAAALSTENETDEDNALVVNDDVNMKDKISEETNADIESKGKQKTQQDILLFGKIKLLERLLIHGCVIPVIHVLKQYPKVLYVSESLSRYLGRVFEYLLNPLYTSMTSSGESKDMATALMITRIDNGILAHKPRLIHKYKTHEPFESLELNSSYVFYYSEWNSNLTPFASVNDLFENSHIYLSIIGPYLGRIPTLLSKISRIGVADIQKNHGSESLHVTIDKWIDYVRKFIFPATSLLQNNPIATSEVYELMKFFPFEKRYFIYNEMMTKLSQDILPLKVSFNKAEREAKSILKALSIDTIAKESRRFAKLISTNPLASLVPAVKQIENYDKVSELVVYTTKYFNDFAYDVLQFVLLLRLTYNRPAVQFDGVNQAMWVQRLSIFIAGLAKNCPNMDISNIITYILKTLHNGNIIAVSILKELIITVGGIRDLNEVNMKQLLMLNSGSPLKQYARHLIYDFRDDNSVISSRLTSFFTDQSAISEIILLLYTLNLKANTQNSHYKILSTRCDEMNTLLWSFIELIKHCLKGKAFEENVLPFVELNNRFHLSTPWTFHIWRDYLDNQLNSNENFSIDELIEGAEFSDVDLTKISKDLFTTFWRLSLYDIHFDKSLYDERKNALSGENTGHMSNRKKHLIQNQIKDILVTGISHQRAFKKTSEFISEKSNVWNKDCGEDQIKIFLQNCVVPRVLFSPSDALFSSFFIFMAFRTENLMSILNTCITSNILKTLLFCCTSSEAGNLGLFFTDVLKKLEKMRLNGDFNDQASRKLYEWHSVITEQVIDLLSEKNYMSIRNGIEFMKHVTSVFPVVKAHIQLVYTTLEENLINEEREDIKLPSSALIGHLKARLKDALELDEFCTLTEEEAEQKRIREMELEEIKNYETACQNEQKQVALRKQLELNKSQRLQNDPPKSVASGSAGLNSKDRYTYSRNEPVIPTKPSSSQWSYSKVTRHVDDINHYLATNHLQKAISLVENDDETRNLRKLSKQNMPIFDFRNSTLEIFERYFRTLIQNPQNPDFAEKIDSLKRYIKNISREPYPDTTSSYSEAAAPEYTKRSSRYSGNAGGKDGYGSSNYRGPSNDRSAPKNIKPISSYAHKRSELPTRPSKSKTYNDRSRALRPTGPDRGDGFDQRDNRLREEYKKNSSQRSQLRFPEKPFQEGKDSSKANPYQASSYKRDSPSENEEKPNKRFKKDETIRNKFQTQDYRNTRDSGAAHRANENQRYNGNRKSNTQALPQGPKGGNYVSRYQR

No constants are given. Whether binding was seen depends on the method and setting. Binding seen in cells or lysates may run through a third protein. A yes stands for co-enrichment or nearness to the bait. Other partners may have been found. For some assays here: A no says only that the protein was not detected with the bait. Sequences can lack the tags named with a protein.

Assay [1] deals with T1, Hpr1-TAP (C-terminally TAP-tagged Hpr1) (S. cerevisiae) (UniProt P17629).
T1 sequence: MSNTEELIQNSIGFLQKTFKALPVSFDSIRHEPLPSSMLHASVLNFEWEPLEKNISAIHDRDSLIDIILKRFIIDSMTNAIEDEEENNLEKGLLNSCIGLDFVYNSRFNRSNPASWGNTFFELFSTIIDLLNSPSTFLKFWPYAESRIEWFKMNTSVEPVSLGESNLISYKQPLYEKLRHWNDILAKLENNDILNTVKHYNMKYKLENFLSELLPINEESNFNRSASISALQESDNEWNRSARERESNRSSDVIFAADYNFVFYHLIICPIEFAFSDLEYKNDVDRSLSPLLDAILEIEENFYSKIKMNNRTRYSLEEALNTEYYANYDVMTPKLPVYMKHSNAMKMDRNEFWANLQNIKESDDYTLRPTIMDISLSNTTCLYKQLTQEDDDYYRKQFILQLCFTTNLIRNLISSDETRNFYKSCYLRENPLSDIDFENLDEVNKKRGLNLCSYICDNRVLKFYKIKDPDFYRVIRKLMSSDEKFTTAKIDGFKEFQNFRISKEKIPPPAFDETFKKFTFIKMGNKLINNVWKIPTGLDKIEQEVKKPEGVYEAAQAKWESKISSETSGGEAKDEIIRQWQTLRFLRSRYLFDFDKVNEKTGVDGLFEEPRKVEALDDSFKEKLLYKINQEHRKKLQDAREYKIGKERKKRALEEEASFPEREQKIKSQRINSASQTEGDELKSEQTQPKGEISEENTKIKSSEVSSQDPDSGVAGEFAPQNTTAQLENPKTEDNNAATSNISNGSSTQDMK
Put plainly: affinity purification with mass spectrometry; two steps (IgG, then Ni affinity) from a strain with Hpr1-TAP and Mft1-His6 under high salt (1000 mM NaCl); Coomassie stain of Ni eluates, identity of each protein verified by mass spectrometry; Western blot against Yra1.

Assay [2] addresses T1, Hpr1-TAP (C-terminally TAP-tagged Hpr1) (S. cerevisiae). Description: affinity purification with mass spectrometry; two steps (IgG, then Ni affinity) from a strain with Hpr1-TAP and Mft1-His6 under low salt (100 mM NaCl); Coomassie stain of Ni eluates, identity of each protein verified by mass spectrometry; Western blot against Yra1.

For the molecule Tho2 (from UniProt P53552 1-1597), the binding entry in assay [1] and in assay [2] was “binds” in each case.

B1: Sub2 (protein, UniProt Q07478 1-446)
chain: MSHEGEEDLLEYSDNEQEIQIDASKAAEAGETGAATSATEGDNNNNTAAGDKKGSYVGIHSTGFKDFLLKPELSRAIIDCGFEHPSEVQQHTIPQSIHGTDVLCQAKSGLGKTAVFVLSTLQQLDPVPGEVAVVVICNARELAYQIRNEYLRFSKYMPDVKTAVFYGGTPISKDAELLKNKDTAPHIVVATPGRLKALVREKYIDLSHVKNFVIDECDKVLEELDMRRDVQEIFRATPRDKQVMMFSATLSQEIRPICRRFLQNPLEIFVDDEAKLTLHGLQQYYIKLEEREKNRKLAQLLDDLEFNQVIIFVKSTTRANELTKLLNASNFPAITVHGHMKQEERIARYKAFKDFEKRICVSTDVFGRGIDIERINLAINYDLTNEADQYLHRVGRAGRFGTKGLAISFVSSKEDEEVLAKIQERFDVKIAEFPEEGIDPSTYLNN
On to B1, for which the binding entry in assay [1] is “no binding (only high salt (1000 mM NaCl))”; in assay [2] it was “binds”.

B2: Tex1 (protein, UniProt P53851 1-422)
chain: MSTIGAVDILNQKTITSEVAASVTSKYLQSTFSKGNTSHIEDKRFIHVSSRSHSRFTSTPITPNEILSLKFHVSGSSMAYSRMDGSLTVWFIKDASFDKSVEVYIPDCCGSDKLATDLSWNPTSLNQIAVVSNSSEISLLLINEKSLTASKLRTLSLGSKTKVNTCLYDPLGNWLLAATKSEKIYLFDVKKDHSSVCSLNISDISQEDNDVVYSLAWSNGGSHIFIGFKSGYLAILKAKHGILEVCTKIKAHTGPITEIKMDPWGRNFITGSIDGNCYVWNMKSLCCELIINDLNSAVTTLDVCHLGKILGICTEDEMVYFYDLNSGNLLHSKSLANYKTDPVLKFYPDKSWYIMSGKNDTLSNHFVKNEKNLITYWKDMFDNTMIEKRRKNNGGGNNHNKRTSKNTDRIGKDRPSRFNSKK
For B2, the binding result in assay [1] and in assay [2] was “binds” each time.

B3: Hrb1 (protein, UniProt P38922 1-454)
chain: MSDQERGSENNNRSRSRSRSPVRRRMSDDHGYERDNHLSRRSGNYNGRRKFADTYRGSRDRGEYRGGRERSDYRERERFNNRDNPRSRDRYDDRRRGRDVTGRYGNRRDDYPRSFRSRHNTRDDSRRGGFGSSGARGDYGPLLARELDSTYEEKVNRNYSNSIFVGNLTYDSTPEDLTEFFSQIGKVVRADIITSRGHHRGMGTVEFTNSDDVDRAIRQYDGAFFMDRKIFVRQDNPPPSNNIKERKALDRGELRHNRKTHEVIVKNLPASVNWQALKDIFKECGNVAHADVELDGDGVSTGSGTVSFYDIKDLHRAIEKYNGYSIEGNVLDVKSKESVHNHSDGDDVDIPMDDSPVNEEARKFTENVVGGGERNRLIYCSNLPFSTAKSDLYDLFETIGKVNNAELRYDSKGAPTGIAVVEYDNVDDADVCIERLNNYNYGGCDLDISYAKRL
On to B3, for which the binding entry is listed as “no binding (only high salt (1000 mM NaCl))” in assay [1] and “binds” in assay [2].

B4: Gbp2 (protein, UniProt P25555 1-427)
chain: MERELGMYGNDRSRSRSPVRRRLSDDRDRYDDYNDSSSNNGNGSRRQRRDRGSRFNDRYDQSYGGSRYHDDRNWPPRRGGRGRGGSRSFRGGRGGGRGRTLGPIVERDLERQFDATKRNFENSIFVRNLTFDCTPEDLKELFGTVGEVVEADIITSKGHHRGMGTVEFTKNESVQDAISKFDGALFMDRKLMVRQDNPPPEAAKEFSKKATREEIDNGFEVFIINLPYSMNWQSLKDMFKECGHVLRADVELDFNGFSRGFGSVIYPTEDEMIRAIDTFNGMEVEGRVLEVREGRFNKRKNNDRYNQRREDLEDTRGTEPGLAQDAAVHIDETAAKFTEGVNPGGDRNCFIYCSNLPFSTARSDLFDLFGPIGKINNAELKPQENGQPTGVAVVEYENLVDADFCIQKLNNYNYGGCSLQISYARRD
B4: the binding result is recorded as “no binding (only high salt (1000 mM NaCl))” in assay [1] and “binds” in assay [2].

B5: Thp2 (protein, UniProt O13539 1-261)
chain: MTKEEGRTYFESLCEEEQSLQESQTHLLNILDILSVLADPRSSDDLLTESLKKLPDLHRELINSSIRLRYDKYQTREAQLLEDTKTGRDVAAGVQNPKSISEYYSTFEHLNRDTLRYINLLKRLSVDLAKQVEVSDPSVTVYEMDKWVPSEKLQGILEQYCAPDTDIRGVDAQIKNYLDQIKMARAKFGLENKYSLKERLSTLTKELNHWRKEWDDIEMLMFGDDAHSMKKMIQKIDSLKSEINAPSESYPVDKEGDIVLE
On to B5, for which the binding entry in assay [1] and in assay [2] was “binds” in each case.

B6: Mft1-His6 (C-terminally His6-tagged Mft1) (protein, UniProt P33441 1-392)
chain: MPLSQKQIDQVRTKVHYSEVDTPFNKYLDILGKVTKLTGSIINGTLSNDDSKIEKLTEQNISQLKESAHLRFLDLQSSIDTKKVADENWETCQQETLAKLENLKDKLPDIKSIHSKLLLRIGKLQGLYDSVQVINREVEGLSEGRTSLVVTRAEWEKELGTDLVKFLIEKNYLKLVDPGLKKDSSEERYRIYDDFSKGPKELESINASMKSDIENVRQEVSSYKEKWLRDAEIFGKITSIFKEELLKRDGLLNEAEGDNIDEDYESDEDEERKERFKRQRSMVEVNTIENVDEKEESDHEYDDQEDEENEEEDDMEVDVEDIKEDNEVDGESSQQEDNSRQGNNEETDKETGVIEEPDAVNDAEEADSDHSSRKLGGTTSDFSASSSVEEVK
With B6, the binding entry in assay [1] and in assay [2] was “binds” in each case.
